{"source": "patent EP0211490B1", "about": "“Antibiotics of the vancomycin-class” (SMITHKLINE BEECHAM CORPORATION, priority 1985, dated 1987)", "test_system": "K. aridum", "experiment": "susceptibility of K. aridum to antibiotic disks (diffusion method)", "assay_type": "cell-based, Kibdelosporangium aridum", "conditions": "BBL susceptibility disks, content per antibiotic; one week at 28°C", "procedure": "Susceptibility of K. aridum to antibiotics was examined by placing BBL susceptibility disks on nutrient agar plates seeded with K. aridum as an overlay. Diameters of the zones of inhibition were measured after incubation for one week at 28°C.\nSusceptibility to Antibiotics. By the diffusion method, K. aridum was resistant to disks impregnated with gentamicin (10 µg), tobramycin (10 µg), streptomycin (10 µg), vancomycin (30 µg), penicillin (10 units), bacitracin (2 units), lincomycin (2 µg), clindamycin (2 µg), and cephalothin (30 µg). Chlortetracycline (5 µg) produced 18 mm zones of inhibition; tetracycline (5 µg) 11-12 mm zones; rifampin (5 µg) 11-15 mm zones; novobiocin (5 µg) 27-28 mm zones. All zones of inhibition contained at least a few resistant colonies.", "note": "For at least one compound, name, drawing or mass did not settle the structure.", "data": [{"smiles": "CCC[C@@H]1C[C@@H](C(=O)N[C@@H]([C@H]2O[C@H](SC)[C@H](O)[C@@H](O)[C@H]2O)[C@H](C)Cl)N(C)C1", "note": "[clindamycin]", "values": [{"measurement": "susceptibility by the diffusion method (in words)", "result": "resistant"}]}]}
